# No constants are given. Whether binding was seen depends on the method and setting. Binding seen in cells or lysates may run through a third protein. These calls come from enrichment with a bait or labelling near it, and not all partners need be listed.
# Amino acid sequences for entries named in this document (tags omitted).
# UniProt P78527: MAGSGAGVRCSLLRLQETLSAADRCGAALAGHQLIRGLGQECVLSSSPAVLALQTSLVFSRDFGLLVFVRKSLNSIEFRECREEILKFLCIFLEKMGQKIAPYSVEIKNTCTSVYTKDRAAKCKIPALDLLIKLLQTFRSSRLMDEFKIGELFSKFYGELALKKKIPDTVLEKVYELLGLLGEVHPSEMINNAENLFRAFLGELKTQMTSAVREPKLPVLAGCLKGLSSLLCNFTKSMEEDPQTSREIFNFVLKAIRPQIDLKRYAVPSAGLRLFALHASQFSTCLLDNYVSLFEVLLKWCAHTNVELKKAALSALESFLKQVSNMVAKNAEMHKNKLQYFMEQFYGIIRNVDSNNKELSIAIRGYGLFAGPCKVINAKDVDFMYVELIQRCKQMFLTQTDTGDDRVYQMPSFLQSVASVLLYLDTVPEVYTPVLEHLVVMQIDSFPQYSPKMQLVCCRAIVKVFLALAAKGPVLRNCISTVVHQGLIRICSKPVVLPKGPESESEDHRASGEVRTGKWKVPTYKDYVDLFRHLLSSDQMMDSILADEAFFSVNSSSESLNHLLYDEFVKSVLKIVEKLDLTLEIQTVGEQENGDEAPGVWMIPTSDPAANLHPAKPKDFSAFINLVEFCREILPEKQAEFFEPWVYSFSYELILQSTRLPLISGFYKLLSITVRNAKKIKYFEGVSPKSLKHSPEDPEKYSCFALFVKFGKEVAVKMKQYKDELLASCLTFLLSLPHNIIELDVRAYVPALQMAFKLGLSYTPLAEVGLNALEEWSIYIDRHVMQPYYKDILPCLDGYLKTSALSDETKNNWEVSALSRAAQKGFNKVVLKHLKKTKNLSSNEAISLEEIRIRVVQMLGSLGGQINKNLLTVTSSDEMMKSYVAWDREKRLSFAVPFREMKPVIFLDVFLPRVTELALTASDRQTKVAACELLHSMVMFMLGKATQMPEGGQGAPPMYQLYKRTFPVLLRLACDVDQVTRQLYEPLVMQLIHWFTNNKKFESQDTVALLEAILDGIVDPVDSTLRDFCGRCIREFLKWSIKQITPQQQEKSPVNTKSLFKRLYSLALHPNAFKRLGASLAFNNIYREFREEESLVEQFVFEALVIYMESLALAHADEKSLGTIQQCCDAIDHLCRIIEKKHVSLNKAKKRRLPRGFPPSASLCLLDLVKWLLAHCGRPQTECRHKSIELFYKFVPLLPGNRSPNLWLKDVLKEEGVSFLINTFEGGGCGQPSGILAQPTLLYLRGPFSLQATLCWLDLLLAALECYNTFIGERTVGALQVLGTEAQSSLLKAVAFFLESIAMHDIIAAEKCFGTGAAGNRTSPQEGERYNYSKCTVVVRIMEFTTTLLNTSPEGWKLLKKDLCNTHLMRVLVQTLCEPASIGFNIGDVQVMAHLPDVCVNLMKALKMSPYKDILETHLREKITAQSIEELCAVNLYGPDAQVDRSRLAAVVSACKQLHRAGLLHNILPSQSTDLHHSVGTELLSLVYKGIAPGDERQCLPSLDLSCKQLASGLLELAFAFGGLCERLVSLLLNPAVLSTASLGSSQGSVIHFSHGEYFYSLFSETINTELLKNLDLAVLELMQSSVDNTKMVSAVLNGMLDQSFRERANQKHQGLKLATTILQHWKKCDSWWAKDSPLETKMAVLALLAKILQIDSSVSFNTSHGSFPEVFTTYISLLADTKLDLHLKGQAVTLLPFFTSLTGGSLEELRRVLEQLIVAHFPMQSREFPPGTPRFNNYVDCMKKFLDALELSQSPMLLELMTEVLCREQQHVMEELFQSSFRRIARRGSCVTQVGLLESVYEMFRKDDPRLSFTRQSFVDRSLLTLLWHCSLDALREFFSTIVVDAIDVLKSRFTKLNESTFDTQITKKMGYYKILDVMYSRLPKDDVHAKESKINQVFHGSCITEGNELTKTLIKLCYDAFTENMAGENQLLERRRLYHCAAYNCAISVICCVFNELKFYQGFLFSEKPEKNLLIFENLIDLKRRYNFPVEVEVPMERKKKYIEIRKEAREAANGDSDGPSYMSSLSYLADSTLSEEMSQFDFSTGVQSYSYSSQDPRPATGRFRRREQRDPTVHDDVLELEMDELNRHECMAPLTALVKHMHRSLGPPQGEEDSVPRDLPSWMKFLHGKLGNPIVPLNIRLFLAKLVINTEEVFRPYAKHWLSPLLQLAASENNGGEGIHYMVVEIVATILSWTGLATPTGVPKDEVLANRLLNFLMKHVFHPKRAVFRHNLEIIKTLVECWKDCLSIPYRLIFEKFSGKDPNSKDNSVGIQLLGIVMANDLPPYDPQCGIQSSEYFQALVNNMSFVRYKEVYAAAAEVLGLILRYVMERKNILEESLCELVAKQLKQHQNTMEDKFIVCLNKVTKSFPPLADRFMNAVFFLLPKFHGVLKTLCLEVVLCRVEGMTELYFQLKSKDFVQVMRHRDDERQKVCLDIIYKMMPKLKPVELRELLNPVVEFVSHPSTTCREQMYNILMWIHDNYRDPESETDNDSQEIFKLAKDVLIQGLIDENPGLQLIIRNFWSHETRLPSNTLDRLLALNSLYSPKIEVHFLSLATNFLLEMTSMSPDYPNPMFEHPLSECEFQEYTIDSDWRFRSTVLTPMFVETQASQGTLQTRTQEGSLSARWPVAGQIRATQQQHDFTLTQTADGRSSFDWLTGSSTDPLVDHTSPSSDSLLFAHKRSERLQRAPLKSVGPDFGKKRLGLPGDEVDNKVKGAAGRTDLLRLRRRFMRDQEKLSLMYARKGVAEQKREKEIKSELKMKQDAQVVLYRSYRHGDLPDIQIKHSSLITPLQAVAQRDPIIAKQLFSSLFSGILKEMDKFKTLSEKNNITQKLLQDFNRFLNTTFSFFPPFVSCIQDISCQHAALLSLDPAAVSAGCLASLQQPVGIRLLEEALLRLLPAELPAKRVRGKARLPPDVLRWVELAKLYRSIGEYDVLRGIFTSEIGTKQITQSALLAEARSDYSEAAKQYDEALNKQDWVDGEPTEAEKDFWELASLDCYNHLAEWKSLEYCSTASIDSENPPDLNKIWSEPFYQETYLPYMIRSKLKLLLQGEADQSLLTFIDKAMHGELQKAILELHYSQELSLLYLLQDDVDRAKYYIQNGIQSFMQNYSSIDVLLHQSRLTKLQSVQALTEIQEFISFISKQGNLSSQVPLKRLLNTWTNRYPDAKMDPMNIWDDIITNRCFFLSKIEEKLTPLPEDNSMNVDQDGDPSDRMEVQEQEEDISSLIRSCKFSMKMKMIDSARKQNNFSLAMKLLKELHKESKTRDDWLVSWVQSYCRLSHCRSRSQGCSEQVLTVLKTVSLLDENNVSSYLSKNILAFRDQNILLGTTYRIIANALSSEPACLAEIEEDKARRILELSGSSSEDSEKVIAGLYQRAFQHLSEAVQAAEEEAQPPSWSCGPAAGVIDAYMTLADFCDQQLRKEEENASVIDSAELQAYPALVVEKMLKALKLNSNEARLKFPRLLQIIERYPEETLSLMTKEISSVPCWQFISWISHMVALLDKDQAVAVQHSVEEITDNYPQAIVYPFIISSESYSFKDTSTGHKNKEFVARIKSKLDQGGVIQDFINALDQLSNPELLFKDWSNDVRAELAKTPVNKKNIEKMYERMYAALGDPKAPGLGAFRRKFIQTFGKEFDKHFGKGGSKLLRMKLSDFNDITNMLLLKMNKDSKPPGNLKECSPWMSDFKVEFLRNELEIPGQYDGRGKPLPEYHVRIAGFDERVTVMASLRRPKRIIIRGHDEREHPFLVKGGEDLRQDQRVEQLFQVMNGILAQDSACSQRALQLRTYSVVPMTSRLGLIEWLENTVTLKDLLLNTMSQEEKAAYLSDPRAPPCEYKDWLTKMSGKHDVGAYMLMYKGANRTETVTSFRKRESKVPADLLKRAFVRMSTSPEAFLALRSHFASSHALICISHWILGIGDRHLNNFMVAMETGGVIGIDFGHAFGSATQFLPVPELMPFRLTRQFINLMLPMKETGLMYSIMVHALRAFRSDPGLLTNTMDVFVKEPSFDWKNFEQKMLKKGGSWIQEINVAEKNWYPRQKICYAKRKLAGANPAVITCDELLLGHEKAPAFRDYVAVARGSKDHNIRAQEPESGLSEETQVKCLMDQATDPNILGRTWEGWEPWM
# UniProt O60216: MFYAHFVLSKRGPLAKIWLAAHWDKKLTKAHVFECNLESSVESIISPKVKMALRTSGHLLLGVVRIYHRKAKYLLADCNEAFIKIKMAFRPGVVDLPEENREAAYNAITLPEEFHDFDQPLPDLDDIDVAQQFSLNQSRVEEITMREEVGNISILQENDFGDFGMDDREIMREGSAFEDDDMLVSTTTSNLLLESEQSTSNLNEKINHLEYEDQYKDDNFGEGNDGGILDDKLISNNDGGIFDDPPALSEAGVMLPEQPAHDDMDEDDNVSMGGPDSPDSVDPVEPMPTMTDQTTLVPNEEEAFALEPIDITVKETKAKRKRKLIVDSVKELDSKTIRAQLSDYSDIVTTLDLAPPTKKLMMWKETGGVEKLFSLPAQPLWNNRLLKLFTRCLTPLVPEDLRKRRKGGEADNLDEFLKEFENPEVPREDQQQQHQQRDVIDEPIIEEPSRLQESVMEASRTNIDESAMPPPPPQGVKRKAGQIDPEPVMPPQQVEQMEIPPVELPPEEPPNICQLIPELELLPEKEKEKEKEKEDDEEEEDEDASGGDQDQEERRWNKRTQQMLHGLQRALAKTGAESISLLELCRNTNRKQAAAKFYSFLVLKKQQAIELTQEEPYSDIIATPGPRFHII
# UniProt Q92922: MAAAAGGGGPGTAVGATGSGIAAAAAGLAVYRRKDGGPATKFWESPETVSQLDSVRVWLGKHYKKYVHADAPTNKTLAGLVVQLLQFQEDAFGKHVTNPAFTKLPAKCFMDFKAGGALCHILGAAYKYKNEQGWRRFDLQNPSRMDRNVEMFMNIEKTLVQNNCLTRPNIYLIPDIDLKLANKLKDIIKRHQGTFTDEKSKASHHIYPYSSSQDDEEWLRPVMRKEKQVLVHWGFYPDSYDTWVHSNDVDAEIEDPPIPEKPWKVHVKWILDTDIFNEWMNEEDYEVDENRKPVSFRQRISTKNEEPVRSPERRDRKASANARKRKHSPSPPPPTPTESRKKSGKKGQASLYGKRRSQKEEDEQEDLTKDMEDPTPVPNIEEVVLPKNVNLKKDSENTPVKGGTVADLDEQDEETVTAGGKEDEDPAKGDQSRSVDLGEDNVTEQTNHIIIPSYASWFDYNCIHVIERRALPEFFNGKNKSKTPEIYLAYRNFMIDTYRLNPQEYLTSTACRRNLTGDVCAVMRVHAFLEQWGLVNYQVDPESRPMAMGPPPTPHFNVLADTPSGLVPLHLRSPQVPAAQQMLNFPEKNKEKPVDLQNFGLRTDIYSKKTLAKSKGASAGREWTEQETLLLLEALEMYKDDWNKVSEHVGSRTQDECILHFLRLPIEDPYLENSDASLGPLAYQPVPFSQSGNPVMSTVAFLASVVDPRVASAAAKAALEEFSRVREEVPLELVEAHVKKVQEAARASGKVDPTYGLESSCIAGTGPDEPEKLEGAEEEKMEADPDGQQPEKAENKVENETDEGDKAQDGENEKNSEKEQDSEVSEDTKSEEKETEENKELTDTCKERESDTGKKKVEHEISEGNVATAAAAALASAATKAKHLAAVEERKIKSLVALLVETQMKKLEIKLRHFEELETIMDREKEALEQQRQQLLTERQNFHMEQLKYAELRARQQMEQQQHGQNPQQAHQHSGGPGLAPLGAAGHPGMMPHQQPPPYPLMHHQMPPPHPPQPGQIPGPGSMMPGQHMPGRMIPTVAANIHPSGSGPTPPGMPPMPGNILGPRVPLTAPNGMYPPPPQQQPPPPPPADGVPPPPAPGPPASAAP
# UniProt P20700: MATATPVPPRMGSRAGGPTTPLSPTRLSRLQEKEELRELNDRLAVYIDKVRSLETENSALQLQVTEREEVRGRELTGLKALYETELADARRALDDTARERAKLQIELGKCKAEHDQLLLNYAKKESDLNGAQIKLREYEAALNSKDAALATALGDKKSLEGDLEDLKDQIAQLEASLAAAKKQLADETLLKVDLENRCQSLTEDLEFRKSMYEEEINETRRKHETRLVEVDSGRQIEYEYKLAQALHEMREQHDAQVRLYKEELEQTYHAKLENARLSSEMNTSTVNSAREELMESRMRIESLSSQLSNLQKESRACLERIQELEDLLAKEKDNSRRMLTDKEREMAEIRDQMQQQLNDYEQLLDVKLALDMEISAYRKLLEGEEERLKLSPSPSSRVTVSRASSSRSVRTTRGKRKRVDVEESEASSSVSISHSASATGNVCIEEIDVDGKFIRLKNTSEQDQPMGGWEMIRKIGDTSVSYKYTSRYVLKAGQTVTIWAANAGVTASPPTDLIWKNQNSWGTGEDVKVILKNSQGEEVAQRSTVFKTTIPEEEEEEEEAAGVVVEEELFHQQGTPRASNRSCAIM
# Target: Yes1-associated transcriptional regulator (YAP1) (human (endogenous in the human SSC line)) (UniProt P46937)
# Test: affinity purification with mass spectrometry; Co-IP/MS from human SSCs with anti-YAP1 antibody, normal IgG as control; beads eluted, trypsin digest, LC-MS (Q-Exactive Plus); the hits named are up-regulated proteins that are also predicted transcription factors of NEDD4
row,Molecule,binding
1,MAFG (from UniProt O15525 1-162),binds
2,PRKDC (from UniProt P78527 1-4128),binds
3,RAD21 (RAD21 cohesin complex component) (from UniProt O60216 1-631),binds
4,SMARCC1 (from UniProt Q92922 1-1105),binds
5,LMNB1 (from UniProt P20700 1-586),binds
6,"SF1 (protein, UniProt Q15637 1-639) MATGANATPLDFPSKKRKRSRWNQDTMEQKTVIPGMPTVIPPGLTREQERAYIVQLQIEDLTRKLRTGDLGIPPNPEDRSPSPEPIYNSEGKRLNTREFRTRKKLEEERHNLITEMVALNPDFKPPADYKPPATRVSDKVMIPQDEYPEINFVGLLIGPRGNTLKNIEKECNAKIMIRGKGSVKEGKVGRKDGQMLPGEDEPLHALVTANTMENVKKAVEQIRNILKQGIETPEDQNDLRKMQLRELARLNGTLREDDNRILRPWQSSETRSITNTTVCTKCGGAGHIASDCKFQRPGDPQSAQDKARMDKEYLSLMAELGEAPVPASVGSTSGPATTPLASAPRPAAPANNPPPPSLMSTTQSRPPWMNSGPSESRPYHGMHGGGPGGPGGGPHSFPHPLPSLTGGHGGHPMQHNPNGPPPPWMQPPPPPMNQGPHPPGHHGPPPMDQYLGSTPVGSGVYRLHQGKGMMPPPPMGMMPPPPPPPSGQPPPPPSGPLPPWQQQQQQPPPPPPPSSSMASSTPLPWQQNTTTTTTSAGTGSIPPWQQQQAAAAASPGAPQMQGNPTMVPLPPGVQPPLPPGAPPPPPPPPPGSAGMMYAPPPPPPPPMDPSNFVTMMGMGVAGMPPFGMPPAPPPPPPQN",binds
7,"SMC1A (protein, UniProt Q14683 1-1233) MGFLKLIEIENFKSYKGRQIIGPFQRFTAIIGPNGSGKSNLMDAISFVLGEKTSNLRVKTLRDLIHGAPVGKPAANRAFVSMVYSEEGAEDRTFARVIVGGSSEYKINNKVVQLHEYSEELEKLGILIKARNFLVFQGAVESIAMKNPKERTALFEEISRSGELAQEYDKRKKEMVKAEEDTQFNYHRKKNIAAERKEAKQEKEEADRYQRLKDEVVRAQVQLQLFKLYHNEVEIEKLNKELASKNKEIEKDKKRMDKVEDELKEKKKELGKMMREQQQIEKEIKEKDSELNQKRPQYIKAKENTSHKIKKLEAAKKSLQNAQKHYKKRKGDMDELEKEMLSVEKARQEFEERMEEESQSQGRDLTLEENQVKKYHRLKEEASKRAATLAQELEKFNRDQKADQDRLDLEERKKVETEAKIKQKLREIEENQKRIEKLEEYITTSKQSLEEQKKLEGELTEEVEMAKRRIDEINKELNQVMEQLGDARIDRQESSRQQRKAEIMESIKRLYPGSVYGRLIDLCQPTQKKYQIAVTKVLGKNMDAIIVDSEKTGRDCIQYIKEQRGEPETFLPLDYLEVKPTDEKLRELKGAKLVIDVIRYEPPHIKKALQYACGNALVCDNVEDARRIAFGGHQRHKTVALDGTLFQKSGVISGGASDLKAKARRWDEKAVDKLKEKKERLTEELKEQMKAKRKEAELRQVQSQAHGLQMRLKYSQSDLEQTKTRHLALNLQEKSKLESELANFGPRINDIKRIIQSREREMKDLKEKMNQVEDEVFEEFCREIGVRNIREFEEEKVKRQNEIAKKRLEFENQKTRLGIQLDFEKNQLKEDQDKVHMWEQTVKKDENEIEKLKKEEQRHMKIIDETMAQLQDLKNQHLAKKSEVNDKNHEMEEIRKKLGGANKEMTHLQKEVTAIETKLEQKRSDRHNLLQACKMQDIKLPLSKGTMDDISQEEGSSQGEDSVSGSQRISSIYAREALIEIDYGDLCEDLKDAQAEEEIKQEMNTLQQKLNEQQSVLQRIAAPNMKAMEKLESVRDKFQETSDEFEAARKRAKKAKQAFEQIKKERFDRFNACFESVATNIDEIYKALSRNSSAQAFLGPENPEEPYLDGINYNCVAPGKRFRPMDNLSGGEKTVAALALLFAIHSYKPAPFFVLDEIDAALDNTNIGKVANYIKEQSTCNFQAIVISLKEEFYTKAESLIGVYPEQGDCVISKVLTFDLTKYPDANPNPNEQ",binds
8,"GLYR (protein, UniProt Q49A26 1-553) MAAVSLRLGDLVWGKLGRYPPWPGKIVNPPKDLKKPRGKKCFFVKFFGTEDHAWIKVEQLKPYHAHKEEMIKINKGKRFQQAVDAVEEFLRRAKGKDQTSSHNSSDDKNRRNSSEERSRPNSGDEKRKLSLSEGKVKKNMGEGKKRVSSGSSERGSKSPLKRAQEQSPRKRGRPPKDEKDLTIPESSTVKGMMAGPMAAFKWQPTASEPVKDADPHFHHFLLSQTEKPAVCYQAITKKLKICEEETGSTSIQAADSTAVNGSITPTDKKIGFLGLGLMGSGIVSNLLKMGHTVTVWNRTAEKCDLFIQEGARLGRTPAEVVSTCDITFACVSDPKAAKDLVLGPSGVLQGIRPGKCYVDMSTVDADTVTELAQVIVSRGGRFLEAPVSGNQQLSNDGMLVILAAGDRGLYEDCSSCFQAMGKTSFFLGEVGNAAKMMLIVNMVQGSFMATIAEGLTLAQVTGQSQQTLLDILNQGQLASIFLDQKCQNILQGNFKPDFYLKYIQKDLRLAIALGDAVNHPTPMAAAANEVYKRAKALDQSDNDMSAVYRAYIH",binds
9,"TFCP2 (protein, UniProt Q12800 1-502) MAWALKLPLADEVIESGLVQDFDASLSGIGQELGAGAYSMSDVLALPIFKQEESSLPPDNENKILPFQYVLCAATSPAVKLHDETLTYLNQGQSYEIRMLDNRKLGELPEINGKLVKSIFRVVFHDRRLQYTEHQQLEGWRWNRPGDRILDIDIPMSVGIIDPRANPTQLNTVEFLWDPAKRTSVFIQVHCISTEFTMRKHGGEKGVPFRVQIDTFKENENGEYTEHLHSASCQIKVFKPKGADRKQKTDREKMEKRTPHEKEKYQPSYETTILTECSPWPEITYVNNSPSPGFNSSHSSFSLGEGNGSPNHQPEPPPPVTDNLLPTTTPQEAQQWLHRNRFSTFTRLFTNFSGADLLKLTRDDVIQICGPADGIRLFNALKGRMVRPRLTIYVCQESLQLREQQQQQQQQQQKHEDGDSNGTFFVYHAIYLEELTAVELTEKIAQLFSISPCQISQIYKQGPTGIHVLISDEMIQNFQEEACFILDTMKAETNDSYHIILK",binds
